# According to the supplement of paper PMC9135407:
# Several values for one entry are separate records, joined by “and”; a condition that tells them apart may be missing. Equal entries are not always repeated. Structures can show the parent of a compound that is named as a salt. ± gives the standard deviation of the averaged measurements. This is one part of the list. Plates or batches differ in their baseline, so values are only roughly comparable.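 Primary human stellate myofibroblasts activated in culture; inactivation shown by regained lipid droplets. Readout: fraction of Hoechst-counted cells exceeding a per-plate Bodipy threshold, duplicate wells, each plate with DMSO negative and nortriptyline positive controls. Hits: control-normalized score beyond the plate's top-tenth-percentile nortriptyline wells, or among its three best wells. Final well concentrations unstated.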
# System: primary human hepatic stellate cells (donor 1)
# Assay: percent Bodipy-positive cells; higher = more lipid droplet accumulation
# Details: 48 h
# [1] = library stock concentration: 10 mM
# [2] = library stock concentration: 1 mM
# [3] = library stock concentration: 3.33 mM
# [4] = library stock concentration: 6.3 mM
# [5] = library stock concentration: 9.1 mM
# [6] = library stock concentration: 6.8 mM
smiles,measurement,setting,value
C[C@@H](CO)NC(=O)[C@@H]1C=C2c3cccc4[nH]cc(c34)C[C@H]2N(C)C1 [Ergonovine maleate],percent Bodipy-positive cells,library stock concentration: 4.5 mM,6.53 ± 5.6%
same,percent Bodipy-positive cells,[1],21.4 ± 15%
CCCCC/C=C\C/C=C\C/C=C\C/C=C\CCCC(=O)NCCc1c[nH]c2ccc(O)cc12 [Arachidonoyl Serotonin],percent Bodipy-positive cells,[2],6.7 ± 1.6%
O=C(O[C@H]1C[N+]2(CCCOc3ccccc3)CCC1CC2)C(O)(c1cccs1)c1cccs1 [Aclidinium Bromide],percent Bodipy-positive cells,[3],12.1 ± 1.8%
same,percent Bodipy-positive cells,[1],31.7 ± 5.2%
CC(=O)NC1CCSC1=O (racemic) [N-Acetyl-DL-homocysteine Thiolactone],percent Bodipy-positive cells,,8.04 ± 0.77%
CC(Cc1ccccc1)NCCC(c1ccccc1)c1ccccc1 (stereo not drawn) [Prenylamine lactate],percent Bodipy-positive cells,,76.2 ± 17%
NCCc1c[nH]c2ccccc12 [Tryptamine hydrochloride],percent Bodipy-positive cells,[1],59 ± 4.4%
NCCc1c[nH]c2ccccc12 [Tryptamine],percent Bodipy-positive cells,[1],57.1 ± 8.7%
COc1ccc(C[C@@H]2NC[C@@H](O)[C@@H]2OC(C)=O)cc1 [Anisomycin],percent Bodipy-positive cells,library stock concentration: 18.8 mM,86.1 ± 2%
CN(C(=O)Cc1ccccc1)C(CN1CCCC1)c1ccccc1 (stereo not drawn) [N-MPPP Hydrochloride],percent Bodipy-positive cells,[1],25.6 ± 9.1%
Cc1cc(SCc2sc(-c3ccc(C(F)(F)F)c(F)c3)nc2C)ccc1OCC(=O)O,percent Bodipy-positive cells,[2],22 ± 1.9%
same,percent Bodipy-positive cells,[3],21.4 ± 7.7%
same,percent Bodipy-positive cells,[1],24.5% and 11.2%
COc1cc2c(c(OC)c1OC)-c1ccc(O)c(=O)cc1[C@@H](N)CC2 [Trimethylcolchicinic acid],percent Bodipy-positive cells,,17.3 ± 7.5%
NC(=O)C[S+]([O-])C(c1ccccc1)c1ccccc1 (stereo not drawn) [Modafinil],percent Bodipy-positive cells,library stock concentration: 7.3 mM,19.3 ± 9.6%
CC(C)(C)[C@]1(O)CC2OC(=O)CC23C(=O)OC2OC(=O)[C@H](O)C231 (stereo partly drawn) [Bilobalide],percent Bodipy-positive cells,[3],8.18 ± 4.6%
same,percent Bodipy-positive cells,[1],9.41 ± 2.5%
C=C1[C@@H](C)[C@H]2[C@H](Cc3ccccc3)NC(=O)[C@]23OC(=O)/C=C/[C@H](O)CCC[C@@H](C)C/C=C/[C@H]3[C@@H]1O [Cytochalasin B],percent Bodipy-positive cells,library stock concentration: 10.4 mM,100%
CC[C@@H]1/C=C/C=C/C[C@H](C)[C@H](O)[C@](C)(O)C(=O)[C@H](C)[C@@H](O)[C@H](C)C(=O)[C@H](C)[C@@H](O)[C@H](C)/C=C/C(=O)O[C@H]2[C@@H](C)[C@@H](CC1)O[C@@]1(CC[C@@H](C)[C@@H](C[C@H](C)O)O1)[C@@H]2C [Oligomycin A],percent Bodipy-positive cells,[3],8.07 ± 1.1%
same,percent Bodipy-positive cells,[4],82.7 ± 13%
same,percent Bodipy-positive cells,[1],12.5 ± 1.3%
CC(=O)OCC1=C(C(=O)O)N2C(=O)[C@@H](NC(=O)CCC[C@@H](N)C(=O)O)[C@H]2SC1 [Cephalosporin c sodium],percent Bodipy-positive cells,[1],19 ± 7.9%
"CCCCC/C=C\C/C=C\C/C=C\C/C=C\CCCC(=O)N(C)C [Arachidonoyl-N,N-dimethyl amide]",percent Bodipy-positive cells,[2],7.46 ± 0.92%
O=C1CN=C(c2ccccc2)c2cc([N+](=O)[O-])ccc2N1 [Nitrazepam],percent Bodipy-positive cells,[1],5.81 ± 0.11%
O=C(Oc1ccc([N+](=O)[O-])cc1)N1CCC(C(O)(c2ccc3c(c2)OCO3)c2ccc3c(c2)OCO3)CC1,percent Bodipy-positive cells,[3],10.9 ± 2.7%
same,percent Bodipy-positive cells,[1],33.4 ± 8.6%
CCCN1CCC[C@@H](c2cccc(O)c2)C1 [S(-)-3PPP hydrochloride],percent Bodipy-positive cells,[1],29.4 ± 9.5%
CCN(CC)CCO[C@H]1CC[C@@]2(C)C(=CC[C@@H]3[C@@H]2CC[C@]2(C)C(=O)CC[C@@H]32)C1,percent Bodipy-positive cells,[2],24.2 ± 7.7%
Cc1ccc(S(=O)(=O)N[C@@H](CCCCN)C(=O)CCl)cc1 [Na-p-Tosyl-L-lysine chloromethyl ketone hydrochloride],percent Bodipy-positive cells,[1],13.7 ± 4%
Cc1ccc(S(=O)(=O)N[C@@H](CCCCN)C(=O)CCl)cc1 [Tosyllysine Chloromethyl Ketone (hydrochloride)],percent Bodipy-positive cells,[2],15.8 ± 0.9%
CN1C(=O)COc2c(C(=O)NC3CN4CCC3CC4)cc(Cl)cc21 (stereo not drawn) [Azasetron],percent Bodipy-positive cells,[1],9.91 ± 5.1%
Cc1cccc(C)c1NC1=NCCCS1 [Xylazine],percent Bodipy-positive cells,,33.1 ± 2%
same,percent Bodipy-positive cells,[5],31.4 ± 2.8%
same,percent Bodipy-positive cells,[1],40.6 ± 14%
Cc1cccc(C)c1NC1=NCCCS1 [Xylazine HCl],percent Bodipy-positive cells,[3],12.4 ± 0.92%
same,percent Bodipy-positive cells,[5],9.06 ± 1.1%
same,percent Bodipy-positive cells,[1],26.5 ± 7.1%
Cc1cccc(C)c1NC1=NCCCS1 [Xylazine hydrochloride],percent Bodipy-positive cells,[1],34.8 ± 0.4%
Clc1ccc(N2CC3CCC(C2)N3)nn1,percent Bodipy-positive cells,[1],41.2 ± 8.7%
COc1cc2c(cc1OC)C1CC(=O)C(CC(C)C)CN1CC2 (stereo not drawn) [Tetrabenazine],percent Bodipy-positive cells,[1],18.4% and 8.12%
CCNC(=O)[C@H]1O[C@@H](n2cnc3c(N)ncnc32)[C@H](O)[C@@H]1O,percent Bodipy-positive cells,[1],7.66 ± 2.3%
CCNC(=O)[C@H]1O[C@@H](n2cnc3c(N)ncnc32)[C@H](O)[C@@H]1O [5'-N-Ethylcarboxamidoadenosine],percent Bodipy-positive cells,[1],29.6 ± 2.5%
CCCCC/C=C\C/C=C\C/C=C\C/C=C\CCCC(=O)Nc1ccc(O)cc1,percent Bodipy-positive cells,[2],20.5 ± 22%
same,percent Bodipy-positive cells,[1],11.6% and 32.5%
O=C1CCC[C@@H]2[C@H]3CCCN4CCC[C@@H](CN12)[C@@H]34 [(+)-Matrine],percent Bodipy-positive cells,[3],10.1 ± 3.7%
same,percent Bodipy-positive cells,[1],15.5 ± 6%
COc1ccc2cc(C(C#N)OC(=O)OCC3OC3c3ccccc3)ccc2c1 (stereo not drawn) [Epoxy Fluor 7],percent Bodipy-positive cells,[2],9.99 ± 0.24%
COC[C@H]1OC(=O)c2coc3c2[C@@]1(C)C1=C(C3=O)[C@@H]2CCC(=O)[C@@]2(C)C[C@H]1OC(C)=O [Wortmannin],percent Bodipy-positive cells,[3],10.9 ± 3.4%
same,percent Bodipy-positive cells,[1],23.7 ± 4.5%
C=C(C)[C@@H]1CCC(C)=C[C@H]1c1c(O)cc(O)cc1CCCCC,percent Bodipy-positive cells,[2],21.7 ± 11%
O=C1C=CC(=O)c2c(O)cccc21 [Juglone],percent Bodipy-positive cells,[1],72.3 ± 24%
CNCCc1ccc(O)c(O)c1 [N-Methyldopamine hydrochloride],percent Bodipy-positive cells,[1],22.4 ± 0.32%
Clc1cnc(Oc2ccc(Oc3ncc(Cl)cc3Cl)cc2)c(Cl)c1,percent Bodipy-positive cells,[1],33.9 ± 5.9%
Oc1cc2c(cc1O)[C@H]1c3ccccc3CN[C@@H]1CC2,percent Bodipy-positive cells,[1],57.63 ± 0.23%
COc1ccc2c(c1)[C@]13CCCC[C@@H]1[C@H](C2)N(C)CC3 [Dextromethorphan hydrobromide],percent Bodipy-positive cells,library stock concentration: 5.7 mM,29.9 ± 4.6%
same,percent Bodipy-positive cells,[1],36.12 ± 0.2%
COc1ccc2c(c1)[C@]13CCCC[C@@H]1[C@H](C2)N(C)CC3 [d-3-Methoxy-N-methylmorphinan hydrobromide],percent Bodipy-positive cells,[1],49 ± 4.2%
COc1ccc2c(c1)[C@]13CCCC[C@@H]1[C@H](C2)N(C)CC3 [Dextromethorphan hydrobromide monohydrate],percent Bodipy-positive cells,,50.7 ± 0.93%
same,percent Bodipy-positive cells,[1],77.5 ± 3.2%
COc1c(C[C@@H](C)OC(=O)Oc2ccc(O)cc2)c2c3c(C[C@@H](C)OC(=O)c4ccccc4)c(OC)c(=O)c4c(O)cc(OC)c(c5c(OC)cc(O)c(c1=O)c52)c43 [Calphostin C],percent Bodipy-positive cells,library stock concentration: 600 uM,3.36 ± 0.17%
CC1=NCCc2c1[nH]c1cc(O)ccc21 [Harmalol hydrochloride],percent Bodipy-positive cells,[1],31.6 ± 12%
Cc1cccc(C(C)c2c[nH]cn2)c1C (stereo not drawn) [Medetomidine hydrochloride],percent Bodipy-positive cells,[1],8.77 ± 2.7%
Cc1cccc(C(C)c2c[nH]cn2)c1C (stereo not drawn) [Medetomidine HCl],percent Bodipy-positive cells,[3],10.7 ± 5.6%
same,percent Bodipy-positive cells,[1],64.3 ± 26%
C=C[C@H]1CN2CC[C@H]1C[C@H]2[C@H](O)c1ccnc2ccccc12 [Cinchonidine],percent Bodipy-positive cells,[3],13.08 ± 0.11%
same,percent Bodipy-positive cells,[6],14 ± 6.9%
same,percent Bodipy-positive cells,[1],23.8% and 17.4%
C=C[C@H]1CN2CC[C@H]1C[C@H]2[C@H](O)c1ccnc2ccccc12 [(-)-Cinchonidine],percent Bodipy-positive cells,,29.9 ± 11%
"CNCC(O)c1ccc(O)cc1 (racemic) [(+,-)-Synephrine]",percent Bodipy-positive cells,,9.32 ± 1.2%
"CN(N=O)c1ccc(O)c(O)c1 [Me-3,4-dephostatin]",percent Bodipy-positive cells,[1],47.6 ± 6.9%
CC(N)Cc1c[nH]c2ccc(OCc3cccs3)cc12.Cl (stereo not drawn) [BW 723C86 hydrochloride],percent Bodipy-positive cells,[1],70 ± 3%
Cc1ccccc1-n1c(Cn2cnc3c(N)ncnc32)nc2cccc(C)c2c1=O,percent Bodipy-positive cells,library stock concentration: 400 uM,17.9 ± 3%
same,percent Bodipy-positive cells,library stock concentration: 2 mM,16.7 ± 12%
same,percent Bodipy-positive cells,[1],63.1 ± 22%
C[C@]12CC[C@@H](O)C[C@@H]1CC[C@@H]1[C@@H]2CC[C@]2(C)C(=O)CC[C@@H]12 [Androsterone],percent Bodipy-positive cells,,20.3 ± 1.9%
CCCN1CCC[C@@H]2Cc3nc(N)ncc3C[C@H]21 [Quinelorane dihydrochloride],percent Bodipy-positive cells,[1],13.8 ± 4.5%
CC1=CC(=O)C2=C(C)C[C@H](O)[C@@H]3[C@H](OC(=O)[C@H]3C)[C@H]12 [Austricine hydrate],percent Bodipy-positive cells,,12 ± 3.8%
OC[C@@H]1CCCN2CCCC[C@H]12 [Lupinine],percent Bodipy-positive cells,[1],32.5 ± 1.5%
COc1cc2c3cc1Oc1cc(ccc1O)C[C@@H]1c4c(cc(OC)c(O)c4Oc4cccc(c4)C[C@@H]3N(C)CC2)CC[N+]1(C)C [Tubocurarine chloride pentahydrate (+)],percent Bodipy-positive cells,,24.11 ± 0.15%
C=CC[C@]1(O)CC[C@H]2[C@@H]3CCC4=CC(=O)CCC4=C3C=C[C@@]21C [Altrenogest],percent Bodipy-positive cells,[3],12.1 ± 4.8%
same,percent Bodipy-positive cells,library stock concentration: 6.4 mM,2.13 ± 3%
same,percent Bodipy-positive cells,[1],46.3 ± 8.1%
CN1C(=O)[C@]23CC4=CC=C[C@H](O)[C@H]4N2C(=O)[C@@]1(CO)SS3 [Gliotoxin],percent Bodipy-positive cells,library stock concentration: 15.3 mM,100%
C=C1[C@@H]2CC[C@H]3[C@]4(C)C[C@H](O[C@@H]5O[C@H](CO)[C@@H](OS(=O)(=O)O)[C@H](OS(=O)(=O)O)[C@H]5OC(=O)CC(C)C)C[C@@H](C(=O)O)[C@H]4CC[C@]3(C2)[C@@H]1O [Atractyloside potassium salt],percent Bodipy-positive cells,,9.38 ± 4.6%
C=CCN=C=S,percent Bodipy-positive cells,[1],45.8 ± 11%
C=C[C@H]1CN2CC[C@H]1C[C@@H]2[C@@H](O)c1ccnc2ccccc12 [Cinchonine],percent Bodipy-positive cells,,42.9 ± 31%
same,percent Bodipy-positive cells,[6],27.2 ± 7%
same,percent Bodipy-positive cells,[1],16.4 ± 2.2%
"C/C(=C\c1csc(C)n1)[C@@H]1C[C@@H]2O[C@]2(C)CCC[C@H](C)[C@H](O)[C@@H](C)C(=O)C(C)(C)[C@@H](O)CC(=O)O1 [Epothilone B (EPO906, Patupilone)]",percent Bodipy-positive cells,[3],7.13 ± 1%
same,percent Bodipy-positive cells,[1],13.2 ± 3.7%
CC(Cc1ccc(O)cc1)NCC(O)c1cc(O)cc(O)c1 (stereo not drawn) [Fenoterol hydrobromide],percent Bodipy-positive cells,,27.7 ± 3.4%
same,percent Bodipy-positive cells,library stock concentration: 5.2 mM,9.97 ± 0.34%
Cn1cnc(CCN)c1 [1-Methylhistamine dihydrochloride],percent Bodipy-positive cells,[1],29.1 ± 15%
Cn1cnc(CCN)c1 [N ?-Methylhistamine dihydrochloride],percent Bodipy-positive cells,[1],7.11 ± 0.47%
COc1cc2c(cc1O)[C@@H]1Cc3ccc(OC)c(O)c3CN1CC2 [Scoulerine],percent Bodipy-positive cells,,52 ± 25%
C1CCc2nnnn2CC1 [Pentylenetetrazole],percent Bodipy-positive cells,,31.3 ± 2.1%
same,percent Bodipy-positive cells,[1],25.7% and 3.93%
CC(C)CC(N(C)C)C1(c2ccc(Cl)cc2)CCC1 (stereo not drawn),percent Bodipy-positive cells,[1],27.4 ± 13%
CC(C)CC(N(C)C)C1(c2ccc(Cl)cc2)CCC1 (stereo not drawn) [Sibutramine hydrochloride],percent Bodipy-positive cells,[4],19.9 ± 7.4%
same,percent Bodipy-positive cells,[1],55.3 ± 7.5%
CC(C)CC(N(C)C)C1(c2ccc(Cl)cc2)CCC1 (stereo not drawn) [Sibutramine],percent Bodipy-positive cells,[1],50 ± 18%
CC(C)CC(N(C)C)C1(c2ccc(Cl)cc2)CCC1 (stereo not drawn) [Sibutramine HCl],percent Bodipy-positive cells,library stock concentration: 7.1 mM,29.4 ± 0.56%
